Earlier results as cited in patent publication US20070010463A1, “Remedies for diseases caused by strengthened vascular smooth muscle using 14-membered ring macrolid compounds” (priority 2003, published 2007).
For at least one compound, name, drawing or mass did not settle the structure.

Test system: vascular smooth muscles
Conditions: Non-Patent Document 4; cited from earlier work

For `CO[C@H]1C[C@@H]2CC[C@@H](C)[C@@](O)(O2)C(=O)C(=O)N2CCCC[C@H]2C(=O)O[C@H]([C@H](C)C[C@@H]2CC[C@@H](O)[C@H](OC)C2)CC(=O)[C@H](C)/C=C(\C)[C@@H](O)[C@@H](OC)C(=O)[C@H](C)C[C@H](C)/C=C/C=C/C=C/1C` [Rapamycin, rapamycin], the “inhibiting activity of the proliferation of vascular smooth muscles” value is listed as “has an inhibiting activity of the proliferation of vascular smooth muscles”.
